PubChem BioAssay AID1259405 | NCATS | 2018
Assay: 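Mouse-designed siRNAs used to find CHO productivity engineering targets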 (primary screen). System: Chinese hamster CHO-K1 ovary cells with stable secreted eGFP expression. Reagent: single siRNA against mouse genes, 0.8 pmol siRNA per well (2 µl of 400 nM stock). Duration: 3 days. Measured: 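Per-well intracellular GFP measured by laser scanning cytometry, plus viability from ATP luminescence, each relative to plate median of non-targeting control wells, in %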. Scale: GFP, % of control: higher = more GFP per well, higher productivity; viability (ATP), % of control: higher = more viable cells (more ATP). Call rule: 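Called active when intracellular GFP, relative to negative control, is at or above 120%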.
The whole screen tested about 50,000 reagents; below is a random part of them. About 4,000 of all reagents (8%) count as active. 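Mouse siRNA library applied to hamster cells; one well for each siRNA.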 Unmarked entries are inactive. The numbers tell different reagents against one gene apart. No sequences are given here.

gene	reagent	GFP, % of control	viability (ATP), % of control
Endou (endonuclease, polyU-specific)	1	117	66.2
Endou (endonuclease, polyU-specific)	2	91.6	71.6
Endou (endonuclease, polyU-specific)	3	102	83.9
Fbln7 (fibulin 7)	1	95.6	103
Fbln7 (fibulin 7)	2	80.4	84.2
Fbln7 (fibulin 7)	3	37.6	42.5
Loxhd1 (lipoxygenase homology domains 1)	1	59.6	71.1
Loxhd1 (lipoxygenase homology domains 1)	2	70.2	91.4
Loxhd1 (lipoxygenase homology domains 1)	3	73.4	87.5
Ushbp1 (USH1 protein network component harmonin binding protein 1)	1	61	41.7
Ushbp1 (USH1 protein network component harmonin binding protein 1)	2	48.6	48.9
Ushbp1 (USH1 protein network component harmonin binding protein 1)	3	88	94.7
Rabl3 (RAB, member RAS oncogene family-like 3)	1	106	80
Rabl3 (RAB, member RAS oncogene family-like 3)	2	72.9	52.8
Rabl3 (RAB, member RAS oncogene family-like 3)	3	50.7	70.9
Cnih4 (cornichon family AMPA receptor auxiliary protein 4)	1	118	97.1
Cnih4 (cornichon family AMPA receptor auxiliary protein 4)	2	167 (active)	102
Cnih4 (cornichon family AMPA receptor auxiliary protein 4)	3	69	61.9
Dmrtc1a (DMRT-like family C1a)	1	35	38.9
Dmrtc1a (DMRT-like family C1a)	2	66.5	44.5
Dmrtc1a (DMRT-like family C1a)	3	102	113
Sik3 (SIK family kinase 3)	1	127 (active)	98.9
Sik3 (SIK family kinase 3)	2	90.8	89.6
Sik3 (SIK family kinase 3)	3	61.1	46.9
Tm9sf4 (transmembrane 9 superfamily member 4)	1	61.7	64.9
Tm9sf4 (transmembrane 9 superfamily member 4)	2	104	83.5
Tm9sf4 (transmembrane 9 superfamily member 4)	3	85.7	73.8
Mlh3 (mutL homolog 3)	1	81.2	93.5
Mlh3 (mutL homolog 3)	2	75.7	72.3
Mlh3 (mutL homolog 3)	3	73.2	78
Pde1c (phosphodiesterase 1C)	1	92.8	90.4
Pde1c (phosphodiesterase 1C)	2	61.6	60.2
Pde1c (phosphodiesterase 1C)	3	57.5	79.1
Serp1 (stress-associated endoplasmic reticulum protein 1)	1	33.2	57.8
Serp1 (stress-associated endoplasmic reticulum protein 1)	2	65.7	30.2
Serp1 (stress-associated endoplasmic reticulum protein 1)	3	52.5	70.7
9230109A22Rik (RIKEN cDNA 9230109A22 gene)	1	96.1	98.8
9230109A22Rik (RIKEN cDNA 9230109A22 gene)	2	61.7	78.5
9230109A22Rik (RIKEN cDNA 9230109A22 gene)	3	79	106
Nono (non-POU-domain-containing, octamer binding protein)	1	56.6	65
Nono (non-POU-domain-containing, octamer binding protein)	2	84.6	82.1
Kcnip4 (Kv channel interacting protein 4)	1	37.8	45.1
Kcnip4 (Kv channel interacting protein 4)	2	50	49.5
Kcnip4 (Kv channel interacting protein 4)	3	96.7	72.9
Cndp1 (carnosine dipeptidase 1)	1	90	84.4
Cndp1 (carnosine dipeptidase 1)	2	75.1	88.5
Cndp1 (carnosine dipeptidase 1)	3	151 (active)	158
Cndp1 (carnosine dipeptidase 1)	4	74.1	107
Cndp1 (carnosine dipeptidase 1)	5	69.6	77.7
Cndp1 (carnosine dipeptidase 1)	6	59	83.5
Arhgap25 (Rho GTPase activating protein 25)	1	45.1	64.1
Arhgap25 (Rho GTPase activating protein 25)	2	74.8	80.7
Arhgap25 (Rho GTPase activating protein 25)	3	106	55.2

Quoted from the listing (11 entries):
gene	reagent	GFP, % of control	viability (ATP), % of control
Tm9sf4 (transmembrane 9 superfamily member 4)	2	104	83.5
Tm9sf4 (transmembrane 9 superfamily member 4)	3	85.7	73.8
Mlh3 (mutL homolog 3)	1	81.2	93.5
Mlh3 (mutL homolog 3)	2	75.7	72.3
Mlh3 (mutL homolog 3)	3	73.2	78
Pde1c (phosphodiesterase 1C)	1	92.8	90.4
Pde1c (phosphodiesterase 1C)	2	61.6	60.2
Pde1c (phosphodiesterase 1C)	3	57.5	79.1
Serp1 (stress-associated endoplasmic reticulum protein 1)	1	33.2	57.8
Serp1 (stress-associated endoplasmic reticulum protein 1)	2	65.7	30.2
Serp1 (stress-associated endoplasmic reticulum protein 1)	3	52.5	70.7

Additional reagents:
gene	reagent	GFP, % of control	viability (ATP), % of control
Them7 (thioesterase superfamily member 7)	1	77	95.8
Them7 (thioesterase superfamily member 7)	2	55.7	54.3
Them7 (thioesterase superfamily member 7)	3	65.5	80.1
Cd96 (CD96 antigen)	1	54.8	75.7
Cd96 (CD96 antigen)	2	98.1	93.7
Cd96 (CD96 antigen)	3	76	70.5
Or5be3 (olfactory receptor family 5 subfamily BE member 3)	1	120	67.3
Or5be3 (olfactory receptor family 5 subfamily BE member 3)	2	87.8	54.8
Or5be3 (olfactory receptor family 5 subfamily BE member 3)	3	42.8	47.7
Acbd4 (acyl-Coenzyme A binding domain containing 4)	1	72.9	63.4
Acbd4 (acyl-Coenzyme A binding domain containing 4)	2	103	67.8
Acbd4 (acyl-Coenzyme A binding domain containing 4)	3	60.8	62.5
Nf1 (neurofibromin 1)	1	125 (active)	83.6
Nf1 (neurofibromin 1)	2	88.9	99.3
Nf1 (neurofibromin 1)	3	29.8	42.2
Timm23 (translocase of inner mitochondrial membrane 23)	1	91.6	57
Timm23 (translocase of inner mitochondrial membrane 23)	2	53.1	60.2
Timm23 (translocase of inner mitochondrial membrane 23)	3	87.6	62.5
Dntt (deoxynucleotidyltransferase, terminal)	1	101	55.7
Dntt (deoxynucleotidyltransferase, terminal)	2	139 (active)	100
Dntt (deoxynucleotidyltransferase, terminal)	3	106	46.8
Gjc1 (gap junction protein, gamma 1)	1	64.4	60.5
Gjc1 (gap junction protein, gamma 1)	2	138 (active)	97.9
Gjc1 (gap junction protein, gamma 1)	3	119	101
Il15ra (interleukin 15 receptor, alpha chain)	1	102	111
Il15ra (interleukin 15 receptor, alpha chain)	2	30.6	26.8
Il15ra (interleukin 15 receptor, alpha chain)	3	104	63.3
Crispld1 (cysteine-rich secretory protein LCCL domain containing 1)	1	126 (active)	106
Crispld1 (cysteine-rich secretory protein LCCL domain containing 1)	2	64.6	68.6
Crispld1 (cysteine-rich secretory protein LCCL domain containing 1)	3	150 (active)	177
Or1j4 (olfactory receptor family 1 subfamily J member 4)	1	92.7	73.7
Or1j4 (olfactory receptor family 1 subfamily J member 4)	2	110	89.9
Or1j4 (olfactory receptor family 1 subfamily J member 4)	3	99.6	122
